The values below come from article PMC10163288.

The chains are these.
B1: il2ra_site2_3nfp_normal_mot_HHH_b1_03516_af2_000000045_0001_38_52_H_._HHH_b1_06009_0001_0000200017_0000001_0 (protein)
chain: SSSSHREDLIRALLILAKRLVEELEDPELQRELERLIEELEREGDPHIAIRLAELLNKINSSSSS
B2: il2ra_site2_2erj_sap_16_mot_HHH_b1_03572_af2_000000164_0001_41_56_H_._HHH_b1_07106_0001_0000700021_0000001_0_0001_af2pred_0001_af2pred (protein)
chain: SSSSDVEEEIEELIEEAKRLLEEGDPERAEEVLLEASRLAFEARDEELYEELLRLLEELESSSSS
B3: il2ra_site2_2erj_sap_23_mot_HHH_b1_00821_000000191_0001_1_20_H_._HHH_b2_02170_0001_0000700016_0000001_0_0001 (protein)
chain: SSSSSDVEEEVRELLERAEEAYEEGDLHLVYELAVRALHLAARHNDREALRLIREVFERLSSSSS
B4: il2ra_site2_3nfp_sap_27_mot_HHH_b1_05437_000000005_0001_40_57_H_._HHH_b1_07835_af2_0001_0000100004_0000001_0_0001 (protein)
chain: SSSSDHAEEYLRAALELAKEALELGDPEAARRIVEMALVAAESNNDEELLEEIRELLEELSSSSS
B5: il2ra_site1_3nfp_normal_mot_HHH_b2_02053_000000240_0001_1_20_H_._97e99672e168623ff83a69b38e8865de_0001_1_0001_0000300024_0000001_0_af2pred_0001_af2pred (protein)
chain: DAEEAVERLVEIAVRNNNPKVLRKILRTLEAFFGDPEEAEEFLHELIEKVLGDPEEAERLVREAK
B6: il2ra_site2_3nfp_normal_mot_HHH_b2_05281_000000198_0001_39_56_H_._HHH_b2_05191_0001_0000100006_0000001_0 (protein)
chain: SSSSDYEERVRELLEEVEELIKEGDEERARELLAEATHIAYENRDHELFALVAELAFKIVQSSSS
B7: il2ra_site1_2b5i_sap_11_mot_HHH_b1_06258_af2_000000112_0001_42_56_H_._HHH_b2_06437_af2_0001_0000300015_0000001_0_0001_af2pred_dldesign_0_af2pred (protein)
chain: SSSSSEEVEKVYDLFKKALELWRAGKKEEARELLEEALALAEALGLTNYVADLKRFLSLLSSSSS
B8: il2ra_site1_1z92_normal_mot_b1fbee8209167eaadba3689d49187f1a_0001_1_af2_000000019_0001_16_31_H_._5511cb2176c827d1feb3066af2f534d5_0001_0001_0000100006_0000001_0 … (protein)
chain: PEELAEEAKELLRNGNPEEAEKVLRELARELGNEEAFKKDLELAEKFLGDPRLALKALISVLSRF
B9: il2ra_site2_2erj_normal_mot_HHH_b2_01353_af2_000000049_0001_23_39_H_._HHH_b1_00034_af2_0001_0001300051_0000001_0 (protein)
chain: SSSSDEEERIKELLKEAEELLENGNPEEAEEVLREAAELAFELGNFELFSEVLEILHELNSSSSS
B10: il2ra_site1_3nfp_normal_mot_HHH_b2_02053_000000240_0001_1_20_H_._7c16d87a9f88b4a3e37f3bc2238c8c9d_0001_1_af2_0001_0000100004_0000001_0_af2pred_0001_af2pred (protein)
chain: SILTELLRLAAEQNNPESLRRIVEQLVRTLGDPEEARKLLEELLEEYGDPVIEEAIEILEELIEK
B11: il2ra_site2_2erj_normal_mot_HHH_b1_03107_000000098_0001_39_52_H_._HHH_b2_01166_0001_0000100004_0000001_0 (protein)
chain: SSSSTEVWEEVARLLAEALELFKEGDEEEVEKLLQEAKRLAEENNDEALERYVEFARRDASSSSS
B12: il2ra_site1_3nfp_normal_mot_7a4252a17c26caee427851ffd8bc664f_0001_000000112_0001_1_12_H_._HHH_b2_06852_af2_0001_0000100002_0000001_0 (protein)
chain: SSSSSEEEERLLELAQELTRAFWEGDKEEARKLAEEALELAEELNDERARKQLERFLKELSSSSS
B13: il2ra_site1_2b5i_normal_mot_HHH_b2_04910_000000118_0001_1_19_H_._HHH_b1_06846_af2_0001_0000300021_0000001_0_af2pred_dldesign_0_af2pred (protein)
chain: SSSSSSPTAEAIALFKKADELYKAGKYEEAKKLLEEARELAEKNGNKSLAKAIKLALESISSSSS
B14: il2ra_site1_2b5i_sap_20_mot_HHH_b2_01776_af2_000000178_0001_1_14_H_._HHH_b2_00329_0001_0000100002_0000001_0_0001_af2pred_0001_af2pred_1 (protein)
chain: SSSSTEELRELVHFIFELLHKFGLSSEQARELNQLAAELADKGVSVEEIKELLRELAEELSSSSS
B15: il2ra_site2_2erj_normal_mot_HHH_b1_04373_af2_000000118_0001_18_33_H_._HHH_b1_05737_0001_0000200011_0000001_0 (protein)
chain: SSSSDLEEVYELAVRALRLLAEGNPEEAEKVLKEAEEILEKAGNEDAVRFLEELFELFERSSSSS
B16: il2ra_site2_3nfp_sap_20_mot_HHH_b1_02226_af2_000000060_0001_38_52_H_._46479c6699afdbd8d5d5faf00326b0b9_0001_1_0001_0000100001_0000001_0_0001 (protein)
chain: SSSSDNAEEYLRAALELAKEAIEEGDEELARRHLRLVILAAEDNGDEEVLEEAERLLEEISSSSS
B17: il2ra_site2_2erj_sap_23_mot_HHH_b2_05012_af2_000000134_0001_1_19_H_._HHH_b2_03538_0001_0000400015_0000001_0_0001 (protein)
chain: SSSSSDLHRLYELANELLRLLAEGDEERFEEVLEEAERLAEKLQDDNTKEFLELLERLLKSSSSS
B18: il2ra_site2_3nfp_normal_mot_HHH_b1_05785_af2_000000002_0001_41_57_H_._HHH_b1_05540_af2_0001_0000400027_0000001_0 (protein)
chain: SSSSDEAEEYLRAALLLLELAVREGDEEQFERHLHAVRLLAESLHDEEVRERLEELEELIKSSSS

The other results are listed elsewhere or left out.

The target in this assay is il2ra, P01589. Kind of assay: yeast display titration.
For B1, the “apparent Kd” value is “inactive: no binding seen”.
The entry for B2 is “inactive: no binding seen”.
Turning to B3, the “apparent Kd” value is “inactive: no binding seen”.
The entry for B4 is “inactive: no binding seen”; for B5 it is “inactive: no binding seen”.
Regarding B6, the “apparent Kd” value was “inactive: no binding seen”.
The entry for B7 is “inactive: no binding seen”; for B8 it is “inactive: no binding seen”.
The entry for B9 is “inactive: no binding seen”; for B10 it is “inactive: no binding seen”; for B11 it is “inactive: no binding seen”.
For B12, the “apparent Kd” value was “inactive: no binding seen”.
Turning to B13, the “apparent Kd” value is “inactive: no binding seen”.
Regarding B14, the “apparent Kd” value was “inactive: no binding seen”.
The entry for B15 is “inactive: no binding seen”; for B16 it is “inactive: no binding seen”.
With B17, the “apparent Kd” value is “inactive: no binding seen”.
With B18, the “apparent Kd” value was “inactive: no binding seen”.
